Experimental data reported in paper PMC3402474 (PLoS ONE, 2012).
These are yes or no findings as the source states them, for the method shown. Some binding calls cover weakened binding; strength is not graded here.

Protein sequences, listed by entry. Tags and fused reporters are not part of them. Residues count along the entry.
UniProt P29311: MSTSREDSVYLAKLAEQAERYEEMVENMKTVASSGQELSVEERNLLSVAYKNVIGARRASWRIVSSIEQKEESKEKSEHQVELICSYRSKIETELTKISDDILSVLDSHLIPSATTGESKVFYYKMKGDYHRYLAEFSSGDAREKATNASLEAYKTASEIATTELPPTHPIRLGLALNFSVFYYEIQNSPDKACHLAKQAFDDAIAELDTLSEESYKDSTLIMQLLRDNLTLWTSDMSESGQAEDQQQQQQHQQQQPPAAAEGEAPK
UniProt P34730: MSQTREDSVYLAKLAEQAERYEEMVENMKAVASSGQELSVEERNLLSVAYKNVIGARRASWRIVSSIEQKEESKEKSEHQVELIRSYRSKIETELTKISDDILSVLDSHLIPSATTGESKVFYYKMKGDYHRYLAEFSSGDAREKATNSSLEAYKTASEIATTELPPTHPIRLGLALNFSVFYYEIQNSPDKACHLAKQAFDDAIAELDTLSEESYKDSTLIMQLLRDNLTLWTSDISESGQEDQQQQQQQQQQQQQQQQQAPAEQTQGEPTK
UniProt P00630, residues 34-167: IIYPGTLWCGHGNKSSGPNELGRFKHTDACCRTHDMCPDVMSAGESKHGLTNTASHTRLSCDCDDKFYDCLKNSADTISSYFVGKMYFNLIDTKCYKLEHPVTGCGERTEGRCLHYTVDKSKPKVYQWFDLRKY

B1: ammodytin I2 (enzyme, UniProt P34180 17-137)
chain: NLYQFGNMIFKMTKKSALLSYSNYGCYCGWGGKGKPQDATDRCCFVHDCCYGRVNGCDPKLSIYSYSFENGDIVCGGDDPCLRAVCECDRVAAICFGENLNTYDKKYKNYPSSHCTETEQC

Legend:
Bmh1 (S. cerevisiae) [1] = biological target: Bmh1 (S. cerevisiae) (UniProt P29311); assay: SPR; both purified
Bmh2 (S. cerevisiae) [2] = biological target: Bmh2 (S. cerevisiae) (UniProt P34730); assay: SPR; both purified
Bmh1 (S. cerevisiae) [3] = biological target: Bmh1 (S. cerevisiae) (UniProt P29311); assay: SPR; BiacoreX, 25°C; recombinant Bmh1 or Bmh2 in 50 mM Tris (pH 7.5), 150 mM NaCl, 0.1 mM CaCl2 immobilized to CM5 chips; 2 µM sPLA2 injected; dissociation monitored 180 s; responses corrected for surface density and molecular weights; both purified
Bmh2 (S. cerevisiae) [4] = biological target: Bmh2 (S. cerevisiae) (UniProt P34730); assay: as above

Molecule	binding (Bmh1 (S. cerevisiae) [1])	binding (Bmh2 (S. cerevisiae) [2])	binding (Bmh1 (S. cerevisiae) [3])	binding (Bmh2 (S. cerevisiae) [4])
bee venom sPLA2 (from UniProt P00630 34-167) (enzyme)	binds	binds		
B1			no binding (tested: 2 µM)	no binding (tested: 2 µM)
